Experimental data: PubChem BioAssay (NCATS)
Some of the results follow. The main result of the screen is listed elsewhere. These columns were measured beside it and carry no call. Most of these compounds were active or inconclusive in the main read-out, so they are no random draw. Potencies come from curve fits of mixed quality, noted in brackets.

Assay: qHTS Assay for Inhibitors of PDE-IV (AID 607)
Conditions: HEK293 ACTOne CNG channel cells, membrane potential fluorescence; measured here: parental cell counter-screen
How it was run: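 HEK293 ACTOne cells with CNG channel (1000/well), endogenous PDE4; membrane potential dye, compounds up to 22.9 uM final. Fluorescence Ex 535/Em 590; RO 20-1724 (100 uM final) as reference.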

| Structure (SMILES) | AC50 |
| --- | --- |
| Cc1cccc(CNc2ccnc(-c3ccccc3CN(C)C)n2)c1 | 12.6 µM [rising, partial curve] |
| COC(=O)[C@@]1(Cc2ccc(F)cc2)[C@H]2c3cc(C(=O)N(C)C)n(Cc4ccc(C)o4)c3C[C@H]2CN1C(=O)c1ccccc1 | 10 µM [rising, single point] |
| COc1ccc(CNc2cc(-c3ccccc3Cl)ncn2)c(OC)c1 | 12.6 µM [rising, single point] |
